Here are results for 2 sequences from patent publication US5968771.

The chains behind the UniProt entries cited, without tags or fusion partners. Where a name states a change or a piece, a line headed by the entry shows the natural chain unless it says otherwise.
UniProt Q78ZR5: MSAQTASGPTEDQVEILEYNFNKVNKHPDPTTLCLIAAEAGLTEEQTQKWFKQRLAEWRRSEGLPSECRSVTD

The exact form of at least one protein or probe is not confirmed.

Series [1] has as its target giig15b (Rattus norvegicus) (UniProt Q78ZR5). Briefly: EMSA. The conditions noted are these: dose-dependent shift; 30 pg probe, 5 ug protein, room temperature 30 min; full probe flanks not stated in the assay text (SEQ 11 may be the probe); purified recombinant protein; label: 32P.
The target is the same in series [2]. Briefly: footprint. Particulars: DNase I protection of TCAATTAAAT; 5 ug protein, poly(dA-dC), 2% polyvinyl alcohol; purified recombinant protein; label: 32P.

Take “TCAATTAAAT (double strand) [homeobox consensus site probe]”: in series [1], the binding result is reported as “binds”. Regarding “TCTAGCGCGGGGCGTGTGCAGGCACGGCTCAATTAAATTTTTGCACTCGTCCCGGCTCTTTCTAGC (double strand) [homeobox footprint target oligonucleotide]”, the binding result in series [2] was “binds”.
